From PubChem BioAssay AID2685 (National Center for Advancing Translational Sciences (NCATS), 2010)
The list shows a part of the results. Further columns of the screen follow, without active or inactive calls. The list favours compounds with an active or inconclusive main result. Potencies come from curve fits of mixed quality, noted in brackets.

Assay: qHTS Assay for Lipid Storage Modulators in Drosophila S3 Cells;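 as to cell number change: cells counted by Cell Tracker Red CMTPX staining in the red channel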
Conditions: BODIPY lipid droplet fluorescence, 18-24 h; for cell number change: measured here: cell count max response, cells fed with added oleic acid
Outline: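 Drosophila S3 cells loaded with oleic acid (400 uM, as added) and compounds at several concentrations; lipid droplets imaged by 488-nm laser-scanning cytometry, 500–530 nm intensity and object ratio to cell channel. Percent activity normalized to 20 uM Triacsin C.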

[1] = measured here: cell number channel AC50, cells fed with added oleic acid
[2] = measured here: lipid fluorescence (Fed channel) AC50, cells fed with added oleic acid

Q: For CCc1ccc(NC(=O)c2cnc3scc(C)n3c2=O)cc1, which cell number change is on record?
A: 16.7%

Q: And the AC50 [1]?
A: 0.517 µM [rising, full curve, poor fit]

Q: For CCC(c1nnnn1CCc1ccccc1)N(Cc1ccco1)Cc1cc2c(C)ccc(C)c2[nH]c1=O (stereo unspecified), which cell number change is on record?
A: -20.9%

Q: And the AC50 [2]?
A: 11.6 µM [falling, partial curve]

Q: With c1ccc(NCc2nnc3n2CCCCC3)cc1 as the compound, how does the cell number change read?
A: -3.28%

Q: With COc1ccc(-c2cc3c(=O)n(CC(=O)Nc4ccc(C(C)=O)cc4)ncn3n2)cc1 as the compound, how does the cell number change read?
A: -4.13%

Q: And the AC50 [1]?
A: 3.26 µM [rising, single point]

Q: What about the AC50 [2] of the same compound?
A: 6.51 µM [rising, partial curve, poor fit]

Q: Which results are given for Cc1ccc(C2=NN(S(C)(=O)=O)C(c3ccc4nccnc4c3)C2)cc1 (stereo unspecified)?
A: cell number change: 40.2%; AC50 [1]: 1.84 µM [rising, full curve, poor fit]; AC50 [2]: 29.1 µM [rising, partial curve, poor fit]

Q: Which AC50 [2] does the source give for CCn1c(SCC(=O)Nc2cc(C)on2)nnc1-c1ccc(S(=O)(=O)N2CCN(C)CC2)cc1 here?
A: 6.51 µM [rising, single point]

Q: With O=C(Nc1cccc(S(=O)(=O)N2CCCC2)c1)c1cc(=O)[nH]c2ccccc12 as the compound, how does the cell number change read?
A: 10.2%

Q: Which AC50 [1] does the source give for CCOC(=O)C(C(=O)Nc1cccc(C)c1)C1CCCCC1 (stereo unspecified) here?
A: 2.31 µM [rising, single point]

Q: With COc1ccc(OC)c(C2=NS(=O)(=O)N(C)C(C(=O)NCc3ccco3)=C2)c1 as the compound, how does the cell number change read?
A: -26%

Q: Which cell number change does the source give for CC(C)CNC(=O)c1cccc(NC(=O)c2ccc3c(c2)C(=O)N(C)C3=O)c1 here?
A: -30.4%

Q: And the AC50 [1]?
A: 8.2 µM [falling, partial curve, poor fit]

Q: What about the AC50 [2] of the same compound?
A: 5.8 µM [falling, single point]

Q: Which results are given for O=C(CCCc1ccccc1)NC1CC1?
A: cell number change: -3.44%; AC50 [2]: 0.146 µM [falling, full curve]

Q: Which results are given for CC(=O)N/C(=C\c1ccc(F)cc1)C(=O)NC(C(=O)O)C(C)C (stereo unspecified)?
A: cell number change: -21.8%; AC50 [2]: 0.58 µM [falling, full curve, poor fit]

Q: With COc1ccc(-n2cccc2C=O)cc1OC as the compound, how does the cell number change read?
A: 18.4%

Q: And the AC50 [2]?
A: 29.1 µM [rising, single point]

Q: Which cell number change does the source give for Cc1ccccc1Cn1cc(NC(=O)c2nn(C)cc2Cl)cn1 here?
A: 34.8%

Q: What about the AC50 [1] of the same compound?
A: 0.00517 µM [rising, full curve, poor fit]

Q: And the AC50 [2]?
A: 0.146 µM [rising, full curve, poor fit]

Q: With C=C(C)c1ccc(C(C)(C)NC(=O)N2CCN(C)CC2)cc1 as the compound, how does the cell number change read?
A: -4.2%

Q: And the AC50 [2]?
A: 13 µM [falling, partial curve, poor fit]

Q: For N#CCc1ccccc1C(=O)OCC(=O)N(Cc1ccccc1)Cc1ccccc1, which cell number change is on record?
A: -0.125%

Q: And the AC50 [2]?
A: 29.1 µM [falling, single point]
